Our source for the binding values is article doi:10.1101/2020.12.04.411520.

Protein sequences, listed by entry. Tags and fused reporters are not part of them. Residues count along the entry.
UniProt Q21281, residues 16-2104: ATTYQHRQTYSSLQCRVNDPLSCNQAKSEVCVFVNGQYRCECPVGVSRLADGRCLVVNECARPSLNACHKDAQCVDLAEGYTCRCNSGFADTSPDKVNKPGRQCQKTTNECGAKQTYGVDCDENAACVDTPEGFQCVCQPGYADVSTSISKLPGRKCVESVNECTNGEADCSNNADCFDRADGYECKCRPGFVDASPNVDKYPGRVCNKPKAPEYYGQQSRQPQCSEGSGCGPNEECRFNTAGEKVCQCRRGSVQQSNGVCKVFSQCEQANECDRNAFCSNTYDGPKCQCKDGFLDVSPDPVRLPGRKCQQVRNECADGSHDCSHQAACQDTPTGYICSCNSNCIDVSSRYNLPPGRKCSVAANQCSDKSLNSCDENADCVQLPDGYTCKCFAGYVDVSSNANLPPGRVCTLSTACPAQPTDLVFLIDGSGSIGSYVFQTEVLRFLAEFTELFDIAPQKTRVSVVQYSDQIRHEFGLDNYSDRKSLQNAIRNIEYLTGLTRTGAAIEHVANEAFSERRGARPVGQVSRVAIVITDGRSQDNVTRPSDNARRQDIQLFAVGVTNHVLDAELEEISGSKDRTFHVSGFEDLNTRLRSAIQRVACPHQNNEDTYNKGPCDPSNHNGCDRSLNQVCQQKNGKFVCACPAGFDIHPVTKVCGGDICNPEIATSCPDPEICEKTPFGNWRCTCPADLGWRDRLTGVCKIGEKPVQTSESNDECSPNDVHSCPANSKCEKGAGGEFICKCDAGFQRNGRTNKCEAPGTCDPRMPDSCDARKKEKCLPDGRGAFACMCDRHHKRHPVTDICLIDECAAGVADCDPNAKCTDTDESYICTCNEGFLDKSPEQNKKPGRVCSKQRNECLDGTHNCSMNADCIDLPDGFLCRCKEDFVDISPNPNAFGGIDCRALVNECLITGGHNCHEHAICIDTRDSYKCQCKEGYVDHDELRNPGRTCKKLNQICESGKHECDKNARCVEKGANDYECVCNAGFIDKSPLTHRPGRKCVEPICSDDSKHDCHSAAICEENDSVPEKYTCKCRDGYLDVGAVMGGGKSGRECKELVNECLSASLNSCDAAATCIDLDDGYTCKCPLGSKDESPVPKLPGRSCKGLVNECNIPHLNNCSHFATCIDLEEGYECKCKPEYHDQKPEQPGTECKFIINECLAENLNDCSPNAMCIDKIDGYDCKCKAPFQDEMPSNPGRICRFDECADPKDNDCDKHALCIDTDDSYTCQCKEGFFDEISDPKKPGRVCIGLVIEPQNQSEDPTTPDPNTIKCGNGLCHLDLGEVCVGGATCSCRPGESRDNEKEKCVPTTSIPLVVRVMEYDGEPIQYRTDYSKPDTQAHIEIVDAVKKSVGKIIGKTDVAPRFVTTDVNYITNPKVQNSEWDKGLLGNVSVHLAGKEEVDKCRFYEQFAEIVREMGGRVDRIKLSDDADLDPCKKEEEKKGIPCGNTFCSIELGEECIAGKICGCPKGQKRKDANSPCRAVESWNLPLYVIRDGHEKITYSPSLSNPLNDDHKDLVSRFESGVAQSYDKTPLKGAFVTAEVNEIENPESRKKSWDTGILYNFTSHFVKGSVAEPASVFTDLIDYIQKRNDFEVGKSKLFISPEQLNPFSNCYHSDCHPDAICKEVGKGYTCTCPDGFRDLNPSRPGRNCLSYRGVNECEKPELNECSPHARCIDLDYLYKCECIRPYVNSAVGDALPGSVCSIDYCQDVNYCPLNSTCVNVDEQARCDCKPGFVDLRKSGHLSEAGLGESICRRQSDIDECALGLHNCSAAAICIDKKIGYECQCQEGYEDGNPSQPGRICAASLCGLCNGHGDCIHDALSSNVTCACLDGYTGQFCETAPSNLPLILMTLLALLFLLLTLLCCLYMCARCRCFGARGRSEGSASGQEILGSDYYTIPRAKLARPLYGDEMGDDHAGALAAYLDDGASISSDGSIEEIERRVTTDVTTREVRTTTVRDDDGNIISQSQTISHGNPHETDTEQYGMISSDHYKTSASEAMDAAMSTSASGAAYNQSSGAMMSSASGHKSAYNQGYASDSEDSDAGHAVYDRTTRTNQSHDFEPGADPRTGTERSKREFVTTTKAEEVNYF
UniProt P12845: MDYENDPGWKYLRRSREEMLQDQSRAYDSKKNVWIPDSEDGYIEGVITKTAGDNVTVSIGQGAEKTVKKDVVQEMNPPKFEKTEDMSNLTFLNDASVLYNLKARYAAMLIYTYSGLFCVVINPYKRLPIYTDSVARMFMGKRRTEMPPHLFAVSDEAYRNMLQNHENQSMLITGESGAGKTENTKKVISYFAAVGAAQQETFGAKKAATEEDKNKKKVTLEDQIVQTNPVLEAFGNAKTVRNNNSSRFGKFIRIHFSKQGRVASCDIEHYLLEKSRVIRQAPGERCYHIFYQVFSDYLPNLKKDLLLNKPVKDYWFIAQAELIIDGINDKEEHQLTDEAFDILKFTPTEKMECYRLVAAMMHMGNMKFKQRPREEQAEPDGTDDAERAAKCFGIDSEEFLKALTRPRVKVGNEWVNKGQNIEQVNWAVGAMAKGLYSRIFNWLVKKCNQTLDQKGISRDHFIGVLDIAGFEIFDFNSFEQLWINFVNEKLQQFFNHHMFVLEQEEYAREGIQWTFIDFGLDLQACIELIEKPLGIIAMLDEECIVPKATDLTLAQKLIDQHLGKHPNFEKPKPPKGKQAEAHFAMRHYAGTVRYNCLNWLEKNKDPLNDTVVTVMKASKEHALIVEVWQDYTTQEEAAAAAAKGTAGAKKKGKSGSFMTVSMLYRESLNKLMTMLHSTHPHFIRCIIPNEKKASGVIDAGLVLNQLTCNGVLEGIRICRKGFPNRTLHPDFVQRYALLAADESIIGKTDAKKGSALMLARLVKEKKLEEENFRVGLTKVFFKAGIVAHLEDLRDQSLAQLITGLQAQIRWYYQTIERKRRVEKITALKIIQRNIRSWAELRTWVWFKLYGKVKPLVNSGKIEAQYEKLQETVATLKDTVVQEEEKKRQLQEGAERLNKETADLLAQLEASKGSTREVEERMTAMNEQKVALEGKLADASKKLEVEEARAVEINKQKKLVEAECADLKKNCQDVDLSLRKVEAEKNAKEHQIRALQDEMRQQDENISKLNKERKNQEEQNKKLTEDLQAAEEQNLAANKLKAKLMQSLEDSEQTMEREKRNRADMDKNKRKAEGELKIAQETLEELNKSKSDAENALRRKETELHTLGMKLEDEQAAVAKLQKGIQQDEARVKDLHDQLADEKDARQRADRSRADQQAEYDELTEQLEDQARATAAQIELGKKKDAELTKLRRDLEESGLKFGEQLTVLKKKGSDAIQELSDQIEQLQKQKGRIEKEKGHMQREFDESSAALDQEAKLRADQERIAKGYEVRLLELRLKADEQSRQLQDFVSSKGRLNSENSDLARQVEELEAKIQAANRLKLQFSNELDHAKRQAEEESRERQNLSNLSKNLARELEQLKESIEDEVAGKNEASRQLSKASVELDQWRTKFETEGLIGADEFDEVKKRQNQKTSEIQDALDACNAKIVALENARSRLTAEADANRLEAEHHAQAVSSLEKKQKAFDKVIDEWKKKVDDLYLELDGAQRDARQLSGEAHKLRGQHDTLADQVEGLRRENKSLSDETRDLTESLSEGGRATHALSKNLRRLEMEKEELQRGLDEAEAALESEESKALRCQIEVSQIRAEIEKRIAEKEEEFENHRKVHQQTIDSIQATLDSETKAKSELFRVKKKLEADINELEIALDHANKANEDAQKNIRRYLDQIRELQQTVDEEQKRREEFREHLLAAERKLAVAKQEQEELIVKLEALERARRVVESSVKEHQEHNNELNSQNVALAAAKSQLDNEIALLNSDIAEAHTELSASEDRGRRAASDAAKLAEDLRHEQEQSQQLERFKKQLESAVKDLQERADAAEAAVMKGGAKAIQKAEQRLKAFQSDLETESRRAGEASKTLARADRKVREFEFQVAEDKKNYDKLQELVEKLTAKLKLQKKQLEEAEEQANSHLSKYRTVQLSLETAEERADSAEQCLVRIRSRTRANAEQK
UniProt P10567: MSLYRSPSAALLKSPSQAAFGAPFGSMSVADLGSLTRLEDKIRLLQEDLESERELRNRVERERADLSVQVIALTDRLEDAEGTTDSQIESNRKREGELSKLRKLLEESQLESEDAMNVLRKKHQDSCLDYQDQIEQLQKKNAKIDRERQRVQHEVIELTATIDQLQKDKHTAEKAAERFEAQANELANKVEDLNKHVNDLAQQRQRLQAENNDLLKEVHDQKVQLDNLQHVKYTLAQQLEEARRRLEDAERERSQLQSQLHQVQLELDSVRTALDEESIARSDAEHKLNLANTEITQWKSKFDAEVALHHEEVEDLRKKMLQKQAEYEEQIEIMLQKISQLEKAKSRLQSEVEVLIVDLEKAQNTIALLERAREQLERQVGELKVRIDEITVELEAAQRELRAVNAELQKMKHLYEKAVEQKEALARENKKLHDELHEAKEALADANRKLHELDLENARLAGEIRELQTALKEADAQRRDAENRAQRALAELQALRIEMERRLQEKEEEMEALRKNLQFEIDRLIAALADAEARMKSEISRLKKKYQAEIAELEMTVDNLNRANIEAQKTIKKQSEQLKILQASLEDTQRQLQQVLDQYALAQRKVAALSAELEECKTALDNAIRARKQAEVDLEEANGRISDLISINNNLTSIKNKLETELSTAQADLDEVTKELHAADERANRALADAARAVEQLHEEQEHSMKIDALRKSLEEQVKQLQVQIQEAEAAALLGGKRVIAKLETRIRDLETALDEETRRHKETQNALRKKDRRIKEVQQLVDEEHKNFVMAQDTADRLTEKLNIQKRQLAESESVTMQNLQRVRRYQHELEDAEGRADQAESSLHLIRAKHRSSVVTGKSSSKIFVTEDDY
UniProt P34462: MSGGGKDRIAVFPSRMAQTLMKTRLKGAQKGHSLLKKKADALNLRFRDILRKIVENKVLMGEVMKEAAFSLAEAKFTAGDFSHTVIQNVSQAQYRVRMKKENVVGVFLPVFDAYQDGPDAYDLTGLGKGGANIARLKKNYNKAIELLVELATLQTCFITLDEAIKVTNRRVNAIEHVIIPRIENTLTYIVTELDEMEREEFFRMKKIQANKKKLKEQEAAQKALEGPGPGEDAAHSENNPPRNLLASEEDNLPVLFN
UniProt Q9Y5K8: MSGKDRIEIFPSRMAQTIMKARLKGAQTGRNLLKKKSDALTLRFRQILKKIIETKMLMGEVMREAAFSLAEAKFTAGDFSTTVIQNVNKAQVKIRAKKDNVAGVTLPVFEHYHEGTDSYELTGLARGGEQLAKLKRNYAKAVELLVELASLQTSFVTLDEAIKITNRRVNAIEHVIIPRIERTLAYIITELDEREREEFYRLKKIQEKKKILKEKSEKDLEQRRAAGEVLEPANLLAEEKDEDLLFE
UniProt Q16864: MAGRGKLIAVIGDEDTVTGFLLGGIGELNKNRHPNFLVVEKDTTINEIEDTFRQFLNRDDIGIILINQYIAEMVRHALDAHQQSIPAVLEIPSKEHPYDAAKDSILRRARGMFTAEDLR

The labels stand for the following.
B1: VHA-9 (protein, UniProt Q23680 1-121)
chain: MASAAKGKILAVIGDEDTVVGFLLGGVGELNKARKPNYLIVDKQTTVQEIEEAFNGFCARDDIAIILINQHIAEMIRYAVDNHTQSIPAVLEIPSKEAPYDPSKDSILNRARGLFNPEDFR
B2: MUA-6/IFA-2 (protein, UniProt O02365 1-581)
chain: MTDPDSYRSSITSRPSFNRTVTSSSQNYGAPGSGNRVLKIVTETHSSSVSSGLSPYGQNAASTIRDNREREKKEIMELNDRLASYIEKVRFLDAQNRKLDADLKMLQGRFGKSTGSVKVMYEMEITTATNVVKQTGKDHGETEKEIRKLQDQLDELRKKFEEAQRGRAEDRLKIDDLLVTLSNLEAEINLLKRRIALLEEEVARLKKENFRLTSELQRVRIELDQETLLRIDNQNKVKTILEEIDFMKRGFETELKELQAQAARDTTSENREYFKNELANAMRDIRAEYDQIMNGNRNDMESWYQLRVQEINTQSNRQNAENNYQKEEVKRLRNQTSELRQKLSDLESRNLLLEKQIEDLNYQLEDDQRSYEAALNDKDAQIRKLREECQALMVELQMLLDTKQTLDGELKVYRQMLEGNSEGNGLRQLVEKVVRTSAINEEADTETMRVVKGEHSSRTSYQRSAKGNVAIKETSPEGKFVILENTHRAKEEPLGDWKLKRKIDGKREIVFTFPSDYILHPFQSVKIFARGQGIANPPEVLIFEGDETFGVGANVQTILYNNKGEERATHIQRQSQQTTSS
B3: IFA-1 (protein, UniProt P90901 1-575)
chain: MMEITRETMSFTSTTPSARAPLGGRTTGNVTSQDRMLKIVTEMRSGAGSGLSPFGQNAASTIRDSREREKKEMSDLNDRLASYIEKVRFLEAQNRKLAADLDALRSKWGKDTHNIRNMYEGELVDAQKLIDETNKQRKDMEGQLKKMQDELAEMRRKLEDATKGREQDRAKIDALLVTLSNLEAEISLLKRRIAQLEDEVKRIKQENQRLLSELQRARTDLDQETLNRIDYQNQVQTLLEEIDFLRRVHDNEIKELQTLASRDTTPENREFFKNELSSAIRDIREEYDQVNNVHRNDMESWYRLKVQEIQTQSARQNMEQGYAKEEVKRLRTQLSDLRGKLADLESRNSLLEKQIQELNYQLEDDQRSYEAALNDRDSQIRKMREECQALMVELQMLLDTKQTLDAEIAIYRKMLEGEENRAGLKQLVEQVVKTHAITQETDTETMRVVKGETASRQSFQRSAKGNVSIHEASPDGKFIVLQNTHRAKDEAIGEWKLKRRIDGKRENVYTLPRDFVLRAGKTLKIFARNQGVASPPDQLVYDAEDSFGSGNNVQTILFNKEGEERATHIQRQSTA
B4: PAT-12 (protein, UniProt Q95QA6 1-663)
chain: MTSHIATETSVNRWSTEPVVREEGRPPGPEDFPSTKQGREQDGNVIGITPNYKIGEQKPNSELNLGKTGSLPRGSGDYKMTYRQEDYKQTIIDPKVITNANMPYISTRIPDPRRNLAGDFPSEHSKSKIKLDPLEQRRFRSSESRPITTSNYLAESVDRHREMEASRLREYLKAKENEANQPWNKPGWPGPKKNDESLRELETMKQRIETLKRDANKGPVNAELDELSKRAEELRKRDGWSKYKLVESDIYKTDPDPMPANIKDQVRDLLESRNSVETTTTQRDHDKSGYVTDVSTATWNFSTVDYSPRSVVSMNGASHDILKDDKPRSIMKRNDLVRREQMLYPTVDTQVVKSVVKKPTVTETVQRFEETRRTEEVERRVQRREKKERRSRHHSSSRHHSGWEGHTGGYQGHRSSSLSRGGHGGGGQETYYRQETTRRQQHNNYDDNFNRGIAHARYGSLSDSLRRGELQYVPNGEVRQSFYRDGSNGGQRMHKSYSTRDVFTGDGYDDRRSVSSFRRGSQQQVSPFVEFPPTLPRRGGGGDYRREEDAYFRPVSKSRSYADWDDAGRAGMGREVRRYDDDMSRLEAEFRDSLLMPMPAGNMNERDHRTEQLPGGYETFNKERHANSGRRSGRDGKPVDFNEATQEYNYKREQTLNDDRRRR
B5: IFB-1 (protein, UniProt Q19289 1-589)
chain: MSSHKESSEYEMQYRSTIQPRTAVRSQSRQSGNYVSGGNGAGSGGRVLKMVTEMGSATVGGISPALSANAAKSFLEATDKEKKTLQGLNDRLGNYIDRVKKLEEQNRKLVADLDELRGKWGKDTSEIKIKYSESLSTARKDIDDAARRKAEVDVKVARHRDDLAEYRSRYEDIQQRRESDREKISQWTNAIADAQSEVEMLRARFKQLTDEEKRVTADNSRIWEELQKARSDLDDETIGRIDFQNQVQTLMEELEFLRRVHEQEVKELQALLAQAPADTREFFKNELALAIRDIKDEYDIIAKQGKQDMESWYKLKVSEVQGSANRANMESTYQRDEVKRMRDNIGDLRGKLGDLENKNSLLEKEVQNLNYQLTDDQRQYEAALNDRDATLRRMREECQTLVAELQALLDTKQMLDAEIAIYRKMLEGEETRVGLTQMVEQAVKTHSLQQQENTDSTRSVRGEVSTKTTFQRSAKGNVTISECDPNGKFIKLENSHRNKDENVGEHKIRRKLDGRREIVYSIPANVVIKPGKNLTIYARDQGGINNPPESLVFDGENTWGIGANVVTSLVNKDGEERATHTQKTIQSGQ
B6: IFA-4 (protein, UniProt P90900 1-575)
chain: MSESEYRSSISVRPTFNRTMQSTATYGSTISSGTSRTLKITEIGGSNLTSGMSPFGGHAASAIRESRTREKKEMSELNDRLASYIEKVRFLEAQNRKMEKDLNLLRGKWGHDSTSVKVMYETELRSAKDLIADSDKERAQLEDQIKKLVEELNNYRNKLHEAERGADVTRKELDNVLGRLGALEAEIELLKRRISLMEESIGHLKRENHRMIDSLHHARNAVEQETLNRIDYQNQVQTLLEECDFIRRIHDSEIHDLLAMASRDTTVENREYFKNELSSAIREIRSEYDHVSNTTRTDIESWYKLKVQEIHTQNSRNCLEQNYAREEVKRLRTTLGDMRGKMADLEGRNLLLEKQIEDLNYQMEEDMRSYEQSLNDKDTSINKLRDESKILMVELQMLIDTKQTLDAEIVIYRKMLDGEENRAGLRQLVEQVVKTTSIHQTKEIESLRVLKGETTSHSSYSRSAKGNIAIQEAEPSGKYIVLENISRRDENIGDWKLRRKIAGKREIVFTFPREFTLRAQKSVKIFARGQGVHSPPDSLVYDLEDSFGTGNDVVTTLYNKEGEDRASHSQRASHT
B7: IFA-3 (protein, UniProt Q21065 1-581)
chain: MADPDSYRSSITSRPAFNRTVTSSTQNYGTPASGNRVLKIVTETHTSSVASGLSPYGQGAASTIRDDREREKKEITELNDRLASYIGKVRFLAAQNRKLEADLNVLQSRFGKSTGSVKIMYEMEITTATNVVKETGKDHEEAEKEIGKIKDQLDELRKKFEEAQKGRAEDRLKIDELLVTLSNLEAEINLLKRRIALLEEEVARLKKENFRLTSELQRVRSELDQETLLRIDNQNKVTTILEEIDFMKRGFETELKDLQAQAARDTTSENREYFKNELMNSIRDIRAEYDRFMAGNRNDLESWSQIRVQEINTQTNRQNAEINHKRDEVKRLHSQVSELKSKHAELAARNGLLEKQLEDLNYQLEDDQRSYEAALNDKDAQVRKLREECQALLVELQMLLDTKQTLDGELKVYRRMLEGNSEENGLRQLVEKVVRTSAINEEVDTETMRVVKGEHSSRTSYQRSAKGNVSIKEVSPEGKFVILENTHRDKEEPLGDWKLKRKIDGKREIVFTFPSDYILHPVQTVKIFARGNGVANPPEVLVFEGDDTFGAGANVQTILYNNSGEERATHMQRQSQQTTTS

Results are given in words; binding and its absence hold for the method and conditions named. In cells and extracts the contact can be indirect. A yes stands for co-enrichment or nearness to the bait. Other partners may have been found. Sequences can lack the tags named with a protein.

One assay deals with T1, GFP::BBLN-1 (C. elegans) (UniProt Q18012).
T1 sequence: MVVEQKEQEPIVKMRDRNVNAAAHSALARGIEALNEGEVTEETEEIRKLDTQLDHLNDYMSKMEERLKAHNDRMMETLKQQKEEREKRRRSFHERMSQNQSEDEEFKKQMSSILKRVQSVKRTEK
Put plainly: affinity purification with mass spectrometry.
FLN-2: the binding result is recorded as “binds”. Regarding LET-805, the binding entry is “binds”. Still for that read-out and setting: under MUP-4 (from UniProt Q21281 16-2104) stands “binds”; under MYO-2 (from UniProt P12845 1-1947), “binds”.

Regarding UNC-15 (from UniProt P10567 1-872), the binding result is recorded as “binds”. In the case of VAB-10, the binding entry is given as “binds”.

As for VHA-14 (from UniProt P34462 1-257), the binding entry is “binds”. Regarding B1, the binding entry is “binds”. As to B2, the binding entry is reported as “binds”. Same read-out and setting: for B3 the value was “binds”.

Turning to B4, the binding result was “binds”. On to B5, for which the binding result was “binds”. Same read-out and setting: under B6 stands “binds”; under B7, “binds”.

The next assay deals with T2, BioGFP::BBLN (human) (UniProt Q9BUW7).
T2 sequence (chain, biotin (Bio tag, BirA co-expressed)): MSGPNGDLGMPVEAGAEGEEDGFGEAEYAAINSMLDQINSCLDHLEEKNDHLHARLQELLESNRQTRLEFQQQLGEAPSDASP
As to the kind of experiment: affinity purification with mass spectrometry.
In the case of “V-ATPase subunit D (ATP6V1D) (from UniProt Q9Y5K8 1-247)”, the binding entry is “binds”. The same measure, in the same setting: under “V-ATPase subunit F (ATP6V1F) (from UniProt Q16864 1-119)” stands “binds”.
